Measured values as given in the supplement of paper PMC7661543.
Differences between knockout arms are mostly noise.

Tested on: SKBR3
Assay: relative cell number vs DMSO control (72 h) (% of DMSO); higher = less growth inhibition (more cells)
Procedure: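 QMAP-Seq: a pool of 5 breast cancer cell lines (ZR-75-1, SKBR3, HCC-38, MDA-MB-231, BT-20), each carrying 12 doxycycline-inducible Cas9 sgRNA perturbations (11 knockouts plus non-targeting sgNT), was treated with compounds for 72 h at four 10-fold doses (10 nM-10 uM or 1 nM-1 uM range). Barcodes were amplified and sequenced, and cell number was interpolated from 293T spike-in standard curves. The result is expressed as % of the median of DMSO wells. Two biological replicates.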

C[C@@H]1CN(CC(=O)Nc2ccc3c(c2)Cc2cccc(-c4cc(=O)cc(N5CCOCC5)o4)c2S3)C[C@H](C)O1
Conditions | relative cell number
sgRNA knockout: sgATF3, 10 nM | 100
sgRNA knockout: sgATF3, 100 nM | 78
sgRNA knockout: sgATF3, 1000 nM | 75.5
sgRNA knockout: sgATF3, 10000 nM | 31.9
sgRNA knockout: sgATF4, 10 nM | 80.7
sgRNA knockout: sgATF4, 100 nM | 97.68
sgRNA knockout: sgATF4, 1000 nM | 74
sgRNA knockout: sgATF4, 10000 nM | 41.7
sgRNA knockout: sgATF6, 10 nM | 79
sgRNA knockout: sgATF6, 100 nM | 111
sgRNA knockout: sgATF6, 1000 nM | 79.8
sgRNA knockout: sgATF6, 10000 nM | 28.3
sgRNA knockout: sgATG7, 10 nM | 86.1
sgRNA knockout: sgATG7, 100 nM | 106
sgRNA knockout: sgATG7, 1000 nM | 80.5
sgRNA knockout: sgATG7, 10000 nM | 43
sgRNA knockout: sgERN1, 10 nM | 102
sgRNA knockout: sgERN1, 100 nM | 84.4
sgRNA knockout: sgERN1, 1000 nM | 85
sgRNA knockout: sgERN1, 10000 nM | 24.6
sgRNA knockout: sgHSF1, 10 nM | 87.31
sgRNA knockout: sgHSF1, 100 nM | 77.3
sgRNA knockout: sgHSF1, 1000 nM | 78.9
sgRNA knockout: sgHSF1, 10000 nM | 30.3
sgRNA knockout: sgHSF2, 10 nM | 79.5
sgRNA knockout: sgHSF2, 100 nM | 70.7
sgRNA knockout: sgHSF2, 1000 nM | 84.7
sgRNA knockout: sgHSF2, 10000 nM | 36.6
sgRNA knockout: sgKEAP1, 10 nM | 80.1
sgRNA knockout: sgKEAP1, 100 nM | 90.6
sgRNA knockout: sgKEAP1, 1000 nM | 75
sgRNA knockout: sgKEAP1, 10000 nM | 36.5
sgRNA knockout: sgNFE2L2, 10 nM | 101
sgRNA knockout: sgNFE2L2, 100 nM | 99.7
sgRNA knockout: sgNFE2L2, 1000 nM | 77.4
sgRNA knockout: sgNFE2L2, 10000 nM | 25
sgRNA knockout: sgSLC35F2, 10 nM | 84.9
sgRNA knockout: sgSLC35F2, 100 nM | 70.6
sgRNA knockout: sgSLC35F2, 1000 nM | 81.9
sgRNA knockout: sgSLC35F2, 10000 nM | 41
sgRNA knockout: sgXBP1, 10 nM | 83.5
sgRNA knockout: sgXBP1, 100 nM | 80.3
sgRNA knockout: sgXBP1, 1000 nM | 80.2
sgRNA knockout: sgXBP1, 10000 nM | 38.3

Cc1[nH]c(/C=C2\C(=O)Nc3ccc(S(=O)(=O)N(C)c4cccc(Cl)c4)cc32)c(C)c1C(=O)N1CCN(C)CC1
Conditions | relative cell number
sgRNA knockout: sgATF3, 10 nM | 126
sgRNA knockout: sgATF3, 100 nM | 85
sgRNA knockout: sgATF3, 1000 nM | 59.7
sgRNA knockout: sgATF3, 10000 nM | 71.7
sgRNA knockout: sgATF4, 10 nM | 90.4
sgRNA knockout: sgATF4, 100 nM | 100
sgRNA knockout: sgATF4, 1000 nM | 84.6
sgRNA knockout: sgATF4, 10000 nM | 50.5
sgRNA knockout: sgATF6, 10 nM | 87.6
sgRNA knockout: sgATF6, 100 nM | 89.39
sgRNA knockout: sgATF6, 1000 nM | 71
sgRNA knockout: sgATF6, 10000 nM | 56.8
sgRNA knockout: sgATG7, 10 nM | 80.4
sgRNA knockout: sgATG7, 100 nM | 106
sgRNA knockout: sgATG7, 1000 nM | 78.2
sgRNA knockout: sgATG7, 10000 nM | 72.8
sgRNA knockout: sgERN1, 10 nM | 109
sgRNA knockout: sgERN1, 100 nM | 86.7
sgRNA knockout: sgERN1, 1000 nM | 85.8
sgRNA knockout: sgERN1, 10000 nM | 47
sgRNA knockout: sgHSF1, 10 nM | 75.1
sgRNA knockout: sgHSF1, 100 nM | 85.7
sgRNA knockout: sgHSF1, 1000 nM | 71.3
sgRNA knockout: sgHSF1, 10000 nM | 67.2
sgRNA knockout: sgHSF2, 10 nM | 98
sgRNA knockout: sgHSF2, 100 nM | 99.5
sgRNA knockout: sgHSF2, 1000 nM | 73
sgRNA knockout: sgHSF2, 10000 nM | 59.2
sgRNA knockout: sgKEAP1, 10 nM | 95.5
sgRNA knockout: sgKEAP1, 100 nM | 86.9
sgRNA knockout: sgKEAP1, 1000 nM | 83.8
sgRNA knockout: sgKEAP1, 10000 nM | 56.1
sgRNA knockout: sgNFE2L2, 10 nM | 98.6
sgRNA knockout: sgNFE2L2, 100 nM | 88.9
sgRNA knockout: sgNFE2L2, 1000 nM | 77.4
sgRNA knockout: sgNFE2L2, 10000 nM | 55.8
sgRNA knockout: sgSLC35F2, 10 nM | 115
sgRNA knockout: sgSLC35F2, 100 nM | 93.2
sgRNA knockout: sgSLC35F2, 1000 nM | 73.3
sgRNA knockout: sgSLC35F2, 10000 nM | 66.3
sgRNA knockout: sgXBP1, 10 nM | 84.6
sgRNA knockout: sgXBP1, 100 nM | 69.4
sgRNA knockout: sgXBP1, 1000 nM | 80.1
sgRNA knockout: sgXBP1, 10000 nM | 69.1

OCc1ccc(-c2ccc(-c3ccc(CO)s3)o2)s1
Conditions | relative cell number
sgRNA knockout: sgATF3, 10 nM | 93.9
sgRNA knockout: sgATF3, 100 nM | 11.9
sgRNA knockout: sgATF3, 1000 nM | 12.3
sgRNA knockout: sgATF3, 10000 nM | 5.72
sgRNA knockout: sgATF4, 10 nM | 83.5
sgRNA knockout: sgATF4, 100 nM | 14.2
sgRNA knockout: sgATF4, 1000 nM | 10.7
sgRNA knockout: sgATF4, 10000 nM | 6.32
sgRNA knockout: sgATF6, 10 nM | 75.1
sgRNA knockout: sgATF6, 100 nM | 13.9
sgRNA knockout: sgATF6, 1000 nM | 12
sgRNA knockout: sgATF6, 10000 nM | 5.39
sgRNA knockout: sgATG7, 10 nM | 90.8
sgRNA knockout: sgATG7, 100 nM | 15.3
sgRNA knockout: sgATG7, 1000 nM | 14.2
sgRNA knockout: sgATG7, 10000 nM | 5.79
sgRNA knockout: sgERN1, 10 nM | 90.2
sgRNA knockout: sgERN1, 100 nM | 13.1
sgRNA knockout: sgERN1, 1000 nM | 10.5
sgRNA knockout: sgERN1, 10000 nM | 7.51
sgRNA knockout: sgHSF1, 10 nM | 61.9
sgRNA knockout: sgHSF1, 100 nM | 10.7
sgRNA knockout: sgHSF1, 1000 nM | 11
sgRNA knockout: sgHSF1, 10000 nM | 4.83
sgRNA knockout: sgHSF2, 10 nM | 64.7
sgRNA knockout: sgHSF2, 100 nM | 14.5
sgRNA knockout: sgHSF2, 1000 nM | 11.7
sgRNA knockout: sgHSF2, 10000 nM | 6.74
sgRNA knockout: sgKEAP1, 10 nM | 75.4
sgRNA knockout: sgKEAP1, 100 nM | 16.3
sgRNA knockout: sgKEAP1, 1000 nM | 10.3
sgRNA knockout: sgKEAP1, 10000 nM | 5.68
sgRNA knockout: sgNFE2L2, 10 nM | 72.8
sgRNA knockout: sgNFE2L2, 100 nM | 17.4
sgRNA knockout: sgNFE2L2, 1000 nM | 13
sgRNA knockout: sgNFE2L2, 10000 nM | 6.84
sgRNA knockout: sgSLC35F2, 10 nM | 84.3
sgRNA knockout: sgSLC35F2, 100 nM | 18.1
sgRNA knockout: sgSLC35F2, 1000 nM | 12
sgRNA knockout: sgSLC35F2, 10000 nM | 5.57
sgRNA knockout: sgXBP1, 10 nM | 96.3
sgRNA knockout: sgXBP1, 100 nM | 16.8
sgRNA knockout: sgXBP1, 1000 nM | 14.5
sgRNA knockout: sgXBP1, 10000 nM | 6.9
